In this data set the target is Mig1 (Xanthophyllomyces dendrorhous) (UniProt A0A1C9UL02). The data set is described as follows: EMSA. As to conditions: poly(dI-dC), 20 mM HEPES pH 7.9, 50 mM KCl, 1 mM DTT, 0.1 mM EDTA, 5% glycerol (+2.5%), 200 ug/ml BSA, 50 ng/ul poly(dI-dC), 0.05% NP-40, 20 fmol DNA, 10 ug Mig1 in 20 ul, recombinant protein, label: 5' biotin. On the technique in general: In EMSA bound probe runs differently from free probe, usually more slowly.

Setting [1] is: shift lost with unlabelled DNA, probe letters rebuilt from the primers and the genome.

For at least one entry, the source does not settle the construct or the ends of the probe. A negative result means that nothing was seen under these conditions. At least one verdict was read from the data and is not stated in words by the source.

Take “GGCATCGAAACCTGGGCTGACTCGGCCGTCGAAACCCCGGGTGAGCTCAGGTTCTTCATCGACAACTACGGCTGTCGAGAGTGGGCCGGCTGGTAGAACACGGGCGGCGGCTGCGACGGGGGGTGCGGCTTTAGGCCCTGCAACTGCGTCTGGAGCAAGTGCTGCCACTGAGGCCGCTGTGGC (double strand) [crtS promoter box A 183 bp]”: the binding result under setting [1] is “binds”.

Regarding “CAGAAGATGGGTCCACCGATAGTGGTTTGAAAGGAGATGGGTGGAATAGAGACAAATGGGGAATTCCAGTTTTGCCTTTGACGAGAAAGGACACTGGGTTGGAAAGAGAAGATGGTACGTTCTTCTCCACCTTGAATGTGTTGCTTACTAGACATGTTTGACACGCTAATGCATTTCTTTCCACTTTGACTTTTGAACTATGGTGGTTGGGCGATCCCCAAAATCATTAGCTTCTACTTCAGCTCATTACCTCG (double strand) [crtYB promoter 254 bp]”, the binding result under setting [1] is reported as “binds”.

With “CATCCATCAGAGGTGCAGCCGCTGCTGGACGAGGTGGGGCCTCGACCAGGGGTGCTAGAGGTGGACGGGCGCCGACGACATTATTCGCAGGTGCACTGGGTAAAGCCCAGGCAAGTGGAACGGGCACAAAACGAGCTCGACCGGAAGATGATGCGGCGGCAACTGGTTCTGGGCTGGGGAACACCCTATTCGACCGGTTGAATG (double strand) [crtS promoter boxes B-C 204 bp]”, under setting [1], the binding result is recorded as “binds”.

Take “GACCGGGCTCGACTGTCGAACGAGCGGACCAGAGATGCCGGCGAGATGGGCTG (double strand) [grg2 box B (-220) 53 bp]”: the binding result was “no binding”.

Source of the values: PMC5021340.
